In the supplement of paper PMC3334620:
Over roughly 33,000 sequences, “E-score (-0.5 to 0.5)” has its median near -8e-05; the highest 2% begin near 0.23. The list shows a part of the results.

Target: T1, Nrg2 (UniProt P38082)
T1 sequence: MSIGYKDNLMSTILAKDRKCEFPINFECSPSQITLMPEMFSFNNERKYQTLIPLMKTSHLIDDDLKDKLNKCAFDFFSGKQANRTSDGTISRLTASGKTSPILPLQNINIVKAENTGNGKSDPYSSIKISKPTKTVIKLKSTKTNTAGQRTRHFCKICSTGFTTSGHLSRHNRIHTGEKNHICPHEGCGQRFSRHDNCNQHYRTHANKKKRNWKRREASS
Assay: PBM E-score (8-mer binding enrichment) (E-score (-0.5 to 0.5)); higher = stronger / more preferred TF binding
Conditions: protein concentration: 100 nM; construct: GST-full length
Method: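 Universal 'all 10-mer' protein binding microarrays (Agilent AMADID 015681) probed with GST-tagged S. cerevisiae TFs (full-length or DBD) made by in vitro transcription/translation (PURExpress), about 100-200 nM. Bound TF was detected with fluorescent anti-GST. Each ungapped 8-mer (which stands for itself and its reverse complement) is scored by the PBM enrichment score (E-score), a modified Wilcoxon-Mann-Whitney statistic from -0.5 to +0.5, computed with the Universal PBM Analysis Suite. Scale: above 0.35 generally sequence-specific binding.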

Sequence	PBM E-score
GATCGTGA	-0.0852
CCACGTCA	0.0201
CGCTCAGC	-0.0441
CGAGTGAA	0.0132
CGTCTGCA	-0.103
GAAATGTA	0.142
ATCTAGAC	0.00931
CTCGAAGA	-0.0616
CATCTCAA	-0.0442
GACTTCCA	-0.0242
GTCTGAGA	-0.148
AAATCTCA	0.17
CAGAATAC	0.106
TGACCGCA	-0.0772
CCCCGCAC	-0.108
AATGTAAC	0.0564
GGAGAGGA	-0.215
AGCAAATC	0.147
TAAATGTA	0.0489
GAGGGTTA	-0.0786
CCAATCCG	0.0817
AGGGTCAC	-0.0206
GTAGTAAA	0.0445
ACAACTAC	0.101
CTATCAAG	0.0817

Sequence	PBM E-score
GGGGCCTA	-0.261
GTCTTCAC	-0.185
ATAATTAC	0.176
ACGATAAT	0.0182
ACATAATG	0.0329
GTCTTCCA	-0.186
GCACGTAA	-0.0988
CGCTATAG	-0.141
ATCCGCAG	0.164
ATATCGTA	0.0228
GTTAGGTA	0.0846
AAGGACAG	0.0182
CTGCGAAC	-0.189
AATGGAGG	-0.0543
AGATATAC	0.111
ATAGAGCC	-0.0518
ACAGGAGG	-0.331
GCGACGGA	-0.0205
GGCAGGTA	-0.143
CCAAGGTA	-0.00169
AAAGACTC	-0.11
CCATGCCG	0.0755
GTGTTAAA	-0.127
ATATTAGA	0.194
AAAGGAGA	-0.0662

Sequence	PBM E-score
AAGGATAA	-0.105
GGAAGCGA	0.0555
GCTTGACC	-0.0509
ACCGGCTA	-0.224
ATGTCCGG	0.0983
AGAAACGC	-0.113
CGTCGTCA	0.0219
TCGAACCA	0.0109
ACCGATTC	-0.113
GGCGGTTA	-0.0436
GCTCGTAC	-0.0941
GCAAGAGA	-0.12
AGTCAGGC	0.106
GAATCATC	-0.0867
CATCTGAA	0.00669
CGAAACTC	0.0403
ATAGACTG	-0.0756
AGCAGGAA	-0.0442
AAGGATCT	-0.0426
CCGGAACG	0.0162
CTGTGATA	3e-05
ATCCGAAT	0.251
AGGCTGGG	-0.142
ACCTCTAA	-0.156
CGATATTC	0.153

Sequence	PBM E-score
AATACATG	0.121
TGTATTAA	0.201
ACGACCAG	-0.0283
CTGTGGTC	-0.0508
AGCATTAA	0.112
AAACCCCA	0.114
ACGCGCGC	0.279
CTATCAGA	-0.205
AGATATGG	0.155
CCCTGAAA	0.305
CCTGTAAA	-0.123
AAAGCCAA	0.043
CGCGAAGA	0.12
ACTTTTAA	-0.0763
CCACGAGC	-0.085
AGTTTCCC	-0.0308
GATCGGGC	-0.0363
ACCGCGCT	0.0712
ACTGCGGA	-0.0585
ATCTGCAA	-0.094
ACTCAGCT	0.049
CCGACTGC	-0.0453
AGGAACGA	-0.126
ACTCTCGC	0.0592
CAGACTTC	-0.18

In another format: results already given
Sequence | PBM E-score
AGCATTAA | 0.112
AAACCCCA | 0.114
ACGCGCGC | 0.279
CTATCAGA | -0.205

Additional entries follow.

Sequence	PBM E-score
AGGAGGTA	-0.224
AGCACGCC	-0.0245
GCAGACAA	0.203
GGTCCAAA	-0.129
ATTTTAGA	-0.0512
AGACCCAC	0.0598
ATGGGTTA	0.0918
GGCCCGAA	0.16
AGAGAGAT	-0.0221
CCGCTTCA	-0.0401
ATGTACAT	0.159
TTGGACAA	0.0354
CGTACCAG	-0.133
AGCCGTCA	-0.108
AGCCACGG	-0.127
AACCATGG	-0.0776
AGATCGTA	-0.148
ATGGTAAT	0.018
CAGTGCAG	0.0174
CGTAGCCA	-0.0815
ACGCACGC	0.162
CTAGGTGA	-0.0714
GCGCTTGA	0.187
AAACCTGA	0.0789
ACTGAAGG	-0.0672

Sequence	PBM E-score
ATATTACA	0.099
GACATCCC	0.145
AGTCTAGC	-0.157
AATATAAA	0.233
GAATCGTC	0.133
GGCAGAAC	0.088
CGGTTGGC	0.0567
CTTGGTAA	-0.0811
ATTCGAGG	-0.0167
CTCAACAA	0.225
GATCCTAA	-0.0855
ATCTTTGG	-0.0421
CCAGAGGG	-0.114
AACAGTGT	-0.00545
AGCCACAT	0.0809
CGCGACAA	0.308
CCCATTTA	0.0205
CGACGATC	0.146
CACAAGCC	-0.113
ACGTCACT	-0.0195
ATGCCCGA	-0.0666
AGCATAGA	-0.0952
GATTTGGC	-0.0298
CTCACTTC	-0.191
ATCGCAAT	0.224

Sequence	PBM E-score
CCTCTCGC	0.0486
TAATATTA	0.322
CGGCGCAA	0.119
CCACATAA	-0.012
GCGCGAGA	0.184
CTTCTTTC	-0.18
TAGACCTA	-0.19
CGTCAAGA	-0.137
CTCGGATA	0.116
GCTTAAGC	-0.088
CGTAAACC	-0.131
TGAGGTAA	0.00276
ATGGGGTC	0.299
CAATAATC	0.112
AAAGGAGG	-0.252
CGAGGGCC	-0.0174
ATGATCAT	0.0338
ACGAACGT	0.0187
CATAGACG	0.0918
AGGCCGGA	-0.175
GATACACC	0.0324
CGGAAACA	-0.151
GAAGTCTC	-0.146
CATGTTAA	0.0941
GAGGAATA	0.0393

Sequence	PBM E-score
ATTAGGCC	0.0427
ATCCCGAG	0.0466
GGGCGACA	-0.132
AATCATCG	0.046
GCCGCGAC	-0.0801
TAGAATGA	0.0589
GTACTACA	0.191
ACTTTTTG	0.038
ACCAGTCC	-0.0442
AGCTACTA	0.0519
CACTTGAC	-0.0154
GACTTATC	-0.223
AAGAGCCG	-0.151
GGGCACGA	-0.0933
CGGTCCAC	-0.222
GCCCCGGC	-0.258
AGAGACGC	-0.00585
CGGTTGAA	0.101
GCTATGCA	-0.0732
AGTGGAGG	0.0258
ACATGCGG	-0.058
ATCGGAGG	-0.25
ATTCTCAC	0.0944
ACTGTAAT	0.0526
ACGCCGTG	0.0109

Sequence	PBM E-score
GTACAGGA	-0.0267
ATCTACTC	0.0316
CTAGAGCA	0.0125
TAACGTTA	-0.0867
ATTGATCC	-0.024
AGAACTAG	0.0365
TCGCGCGA	0.138
AGATCCAA	0.0871
CGAATACC	0.0757
CAAGTGCG	0.0578
GGGTCGAA	-0.0102
AGATCTCC	0.00029
AGGCCGGG	-0.266
ATACCGGA	-0.222
CGCAGAAG	0.132
GCCTTGTA	-0.048
CTATCGCA	0.122
CGTAGGTA	-0.0076
CCCAATCA	0.144
ATGTGACA	0.115
ATAGATTG	0.0917
CGCCAAAG	0.0237
GAGCCACA	-0.169
ACGACTGC	-0.173
AAACTCAC	0.023

Sequence	PBM E-score
CTGTGCTA	0.0335
CCCTCGCC	-0.0464
CATGCCTA	-0.0738
TACAAACA	0.243
AACCCTGA	0.385
TTGCCAAA	0.0604
CACGCGCG	0.0259
CTTATGCC	0.0717
CCGGCACC	0.134
GCAAGGGC	-0.107
ATCGATTG	0.0761
AACGCCAG	0.123
ACCTGTAG	-0.125
CATCCCGG	-0.0163
ATAAGAGG	0.0354
ACAAGAAG	0.176
ATGTGCCG	-0.197
GTGGCAGA	-0.276
CGAAATTA	0.104
CCGCTTAC	-0.227
GAACATGA	0.0272
CTACCTGC	0.0377
CACGACCA	-0.0449
ATCCGAGA	0.163
AGGTATAG	0.0175

Sequence	PBM E-score
AGCCATCC	0.0327
CTGAACAC	0.186
GCGTAGGA	0.00188
CACAGCCA	-0.0609
AGCTGGGA	-0.0126
CGCCCAGC	0.156
GAGTACCC	0.0677
AGGCCGTC	-0.0983
ATATTAAG	0.0738
GCAACGCC	-0.0162
AAATGACC	0.0482
CACTGGTC	-0.201
AACGGCCA	-0.0704
AAAACTTT	0.0137
ACACGCGT	0.00123
CGGTTACC	-0.076
GCGTCAAA	0.102
AGTTGCTC	-0.121
CGAAACGC	-0.221
GAATGCCA	-0.0175
AGTAGCGG	-0.0087
ATCCTTTC	-0.0665
ACTGTCGA	0.074
GACGTCGA	0.0857
ACAGACAG	0.255

Sequence	PBM E-score
ACCAGTGG	-0.0539
GGCCTAAA	-0.127
ACAGTGGT	0.0526
CCGATCTA	-0.0703
GGCGGGGA	0.249
ACAGGCAT	-0.00285
AGGATCGA	-0.0712
AGCCGGAG	0.023
CCTGAACC	0.0425
GTATACAC	0.0161
CCATGTCA	-0.0662
GGCAGCCC	-0.04
GAAGGCAC	0.0779
AGCAAGCG	0.00314
GGGGACAC	-0.0864
CTTAGTGC	-0.0326
CCTTGGAC	-0.165
GTTGCGCA	0.0239
TGTCCAAA	0.0793
ATTCCGTC	-0.022
AAGACCTT	-0.0919
GTGTCCGA	-0.0516
AACCCACT	0.225
GGGGGTGA	-0.409
CACCGGGC	-0.221

Looked up one by one from the list above (4):
Sequence	PBM E-score
CATCTCAA	-0.0442
ACTTTTAA	-0.0763
TGACCGCA	-0.0772
CCAGAGGG	-0.114

In a second layout: entries from further up

| Sequence | PBM E-score |
| --- | --- |
| TGTCCAAA | 0.0793 |
| ATTCCGTC | -0.022 |
| AAGACCTT | -0.0919 |
| GTGTCCGA | -0.0516 |

(cont.)

Sequence	PBM E-score
AGGAGGAT	-0.134
AAGCCTAC	-0.128
CCAGCGAG	-0.0165
GCTTGTCC	0.0221
ACCAGCCT	0.0416
ATCAATTC	0.107
GTTAAAAA	-0.15
CCCGCTTC	-0.125
CTTGGAAA	0.0285
AGACCGAC	0.124
GCCACCGA	-0.137
ACGTTATC	0.034
AGCACTGA	-0.0142
ATCCTGAC	0.178
AACAGCCT	-0.00931
CCCAGGGA	0.124
TGGAGTAA	0.12
CGAAATCC	0.199
CGCTAACA	-0.0645
ACATATGC	-0.33
CGAGTATA	0.107
ATATTTTA	0.0171
TCTTGCAA	0.196
ATCAGTAG	-0.029
ATCCGACC	0.0125

Sequence	PBM E-score
AGGTAAAG	0.0795
CATGGACC	-0.0369
ACAGTTGA	0.0619
ACCCCATC	0.0787
AATTACTG	0.111
ACTGCGCA	0.134
CCCATAAC	0.0318
AGTTTATA	0.173
ATGGCGTC	-0.0451
AAACGTGC	-0.113
CGAATTAA	0.175
CCATGTCG	0.0593
AGCTTCCG	-0.0886
CCGGACCA	-0.185
ACAAGCCC	-0.113
AAGTATAT	0.12
ACTTGCGA	0.115
CCCCCGTA	-0.372
GTCGGGAA	-0.0167
